Results taken from the M2OR odorant receptor database.
Some of the results follow. The calls were merged from several studies; some rest on single wells.

Legend:
Settings in all cases: stereoisomer not certain
O14A2 = test system: T1, O14A2
T1 sequence (whole entry): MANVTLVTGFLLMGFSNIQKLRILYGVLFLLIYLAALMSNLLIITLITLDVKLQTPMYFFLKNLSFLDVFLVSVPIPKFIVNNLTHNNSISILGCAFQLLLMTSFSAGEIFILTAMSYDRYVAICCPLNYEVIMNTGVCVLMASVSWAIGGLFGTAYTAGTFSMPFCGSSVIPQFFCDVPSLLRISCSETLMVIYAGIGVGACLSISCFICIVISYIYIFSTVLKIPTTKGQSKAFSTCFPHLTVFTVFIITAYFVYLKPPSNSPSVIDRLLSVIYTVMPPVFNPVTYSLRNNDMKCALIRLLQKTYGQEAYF
Summary of the method: (§1)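 Each entry records the cell line, G-protein, co-transfected protein and tags used. Methods varied with the source, often transient luciferase assays in mammalian cell lines. A receptor–molecule pair is called responsive (active) if the original authors judged its signal statistically different from baseline and non-responsive (inactive) otherwise.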

O14AG = test system: T2, O14AG
T2 sequence (whole entry): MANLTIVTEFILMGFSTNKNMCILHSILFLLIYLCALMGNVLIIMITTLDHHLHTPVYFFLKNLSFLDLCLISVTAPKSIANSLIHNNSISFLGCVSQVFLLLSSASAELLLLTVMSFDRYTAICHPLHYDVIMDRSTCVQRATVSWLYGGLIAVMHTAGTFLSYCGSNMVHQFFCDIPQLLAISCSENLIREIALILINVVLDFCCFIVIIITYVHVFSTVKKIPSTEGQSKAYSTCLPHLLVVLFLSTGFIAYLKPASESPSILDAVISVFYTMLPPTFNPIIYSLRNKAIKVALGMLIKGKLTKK
Summary of the method: as §1

O14CZ = test system: T3, O14CZ
T3 sequence (whole entry): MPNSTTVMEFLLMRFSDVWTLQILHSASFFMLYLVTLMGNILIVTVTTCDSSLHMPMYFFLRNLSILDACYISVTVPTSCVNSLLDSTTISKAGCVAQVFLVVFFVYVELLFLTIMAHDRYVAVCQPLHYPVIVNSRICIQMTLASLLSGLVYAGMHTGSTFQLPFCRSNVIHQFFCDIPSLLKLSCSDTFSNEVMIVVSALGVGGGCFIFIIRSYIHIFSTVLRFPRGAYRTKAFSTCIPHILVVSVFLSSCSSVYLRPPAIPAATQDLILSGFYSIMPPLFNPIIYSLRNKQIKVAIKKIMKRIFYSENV
Summary of the method: as §1

O14I1 = test system: T4, O14I1
T4 sequence (whole entry): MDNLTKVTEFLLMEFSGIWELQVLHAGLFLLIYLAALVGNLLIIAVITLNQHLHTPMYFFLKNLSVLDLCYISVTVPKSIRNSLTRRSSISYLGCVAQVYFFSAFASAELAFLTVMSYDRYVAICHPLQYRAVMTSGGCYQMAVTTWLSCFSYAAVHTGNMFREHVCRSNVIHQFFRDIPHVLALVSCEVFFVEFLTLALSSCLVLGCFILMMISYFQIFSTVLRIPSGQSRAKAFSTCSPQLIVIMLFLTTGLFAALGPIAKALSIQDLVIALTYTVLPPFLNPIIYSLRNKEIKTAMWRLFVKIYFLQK
Summary of the method: as §1

O14J1 = test system: T5, O14J1
T5 sequence (whole entry): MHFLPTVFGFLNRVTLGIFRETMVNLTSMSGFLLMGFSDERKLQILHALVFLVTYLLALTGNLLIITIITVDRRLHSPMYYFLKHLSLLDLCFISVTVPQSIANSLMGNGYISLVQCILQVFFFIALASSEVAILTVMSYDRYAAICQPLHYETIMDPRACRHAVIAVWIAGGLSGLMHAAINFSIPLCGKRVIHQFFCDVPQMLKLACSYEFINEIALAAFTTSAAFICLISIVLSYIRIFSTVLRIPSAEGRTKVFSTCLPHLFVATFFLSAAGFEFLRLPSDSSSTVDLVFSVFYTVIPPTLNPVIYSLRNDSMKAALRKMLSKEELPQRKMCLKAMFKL
Summary of the method: as §1

O14K1 = test system: T6, O14K1
T6 sequence (whole entry): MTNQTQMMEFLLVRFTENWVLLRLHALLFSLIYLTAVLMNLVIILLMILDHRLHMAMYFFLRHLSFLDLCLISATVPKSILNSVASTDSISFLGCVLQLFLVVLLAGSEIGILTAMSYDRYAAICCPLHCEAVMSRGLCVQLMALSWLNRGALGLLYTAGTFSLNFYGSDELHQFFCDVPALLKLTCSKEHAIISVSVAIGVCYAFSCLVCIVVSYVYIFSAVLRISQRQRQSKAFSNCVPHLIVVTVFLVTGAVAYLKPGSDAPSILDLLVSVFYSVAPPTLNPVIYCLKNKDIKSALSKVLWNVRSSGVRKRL
Summary of the method: as §1

O14L1 = test system: T7, O14L1
T7 sequence (whole entry): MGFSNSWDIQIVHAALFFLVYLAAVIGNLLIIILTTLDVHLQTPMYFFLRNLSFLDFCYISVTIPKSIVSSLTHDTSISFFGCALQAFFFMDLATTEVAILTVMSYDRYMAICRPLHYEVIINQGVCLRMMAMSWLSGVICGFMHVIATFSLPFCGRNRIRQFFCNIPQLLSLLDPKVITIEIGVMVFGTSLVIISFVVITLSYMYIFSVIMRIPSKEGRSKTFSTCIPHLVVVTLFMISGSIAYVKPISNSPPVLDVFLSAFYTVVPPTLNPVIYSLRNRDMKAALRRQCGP
Summary of the method: as §1

O2A14 = test system: T8, O2A14
T8 sequence (whole entry): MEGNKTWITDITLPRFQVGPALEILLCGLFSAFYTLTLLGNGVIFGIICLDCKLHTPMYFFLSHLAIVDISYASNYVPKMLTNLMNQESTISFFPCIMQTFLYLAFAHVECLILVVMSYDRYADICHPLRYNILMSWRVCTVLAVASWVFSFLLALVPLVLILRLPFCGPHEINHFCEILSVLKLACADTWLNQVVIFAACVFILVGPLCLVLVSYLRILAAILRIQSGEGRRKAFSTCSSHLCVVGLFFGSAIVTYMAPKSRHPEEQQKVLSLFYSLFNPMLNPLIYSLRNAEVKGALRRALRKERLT
Summary of the method: as §1

O2AE1 = test system: T9, O2AE1
T9 sequence (whole entry): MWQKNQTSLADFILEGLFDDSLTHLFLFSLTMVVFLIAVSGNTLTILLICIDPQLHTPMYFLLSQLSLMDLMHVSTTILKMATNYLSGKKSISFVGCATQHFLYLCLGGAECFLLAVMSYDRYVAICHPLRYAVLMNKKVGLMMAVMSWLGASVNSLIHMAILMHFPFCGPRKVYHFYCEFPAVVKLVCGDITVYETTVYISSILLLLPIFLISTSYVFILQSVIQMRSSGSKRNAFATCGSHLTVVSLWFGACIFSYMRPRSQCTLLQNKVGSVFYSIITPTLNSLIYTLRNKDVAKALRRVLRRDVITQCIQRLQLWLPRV
Summary of the method: as §1

O2AG2 = test system: T10, O2AG2
T10 sequence (whole entry): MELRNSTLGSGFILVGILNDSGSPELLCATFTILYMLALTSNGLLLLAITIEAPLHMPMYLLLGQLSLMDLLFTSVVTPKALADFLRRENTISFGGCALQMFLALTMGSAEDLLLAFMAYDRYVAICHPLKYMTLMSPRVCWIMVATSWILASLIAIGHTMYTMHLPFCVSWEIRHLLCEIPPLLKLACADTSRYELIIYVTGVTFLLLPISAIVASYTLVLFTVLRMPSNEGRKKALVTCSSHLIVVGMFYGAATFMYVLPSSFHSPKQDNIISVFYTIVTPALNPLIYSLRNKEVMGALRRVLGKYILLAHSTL
Summary of the method: as §1

O2AJ1 = test system: T11, O2AJ1
T11 sequence (whole entry): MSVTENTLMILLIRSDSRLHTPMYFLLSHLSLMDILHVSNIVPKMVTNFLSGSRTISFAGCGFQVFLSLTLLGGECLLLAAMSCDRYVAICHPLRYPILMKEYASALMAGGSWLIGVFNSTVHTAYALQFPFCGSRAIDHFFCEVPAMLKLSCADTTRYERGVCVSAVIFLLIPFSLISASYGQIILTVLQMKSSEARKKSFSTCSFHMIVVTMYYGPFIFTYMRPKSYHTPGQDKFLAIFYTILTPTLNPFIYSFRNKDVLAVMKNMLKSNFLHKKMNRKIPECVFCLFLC
Summary of the method: as §1

O2AK2 = test system: T12, O2AK2
T12 sequence (whole entry): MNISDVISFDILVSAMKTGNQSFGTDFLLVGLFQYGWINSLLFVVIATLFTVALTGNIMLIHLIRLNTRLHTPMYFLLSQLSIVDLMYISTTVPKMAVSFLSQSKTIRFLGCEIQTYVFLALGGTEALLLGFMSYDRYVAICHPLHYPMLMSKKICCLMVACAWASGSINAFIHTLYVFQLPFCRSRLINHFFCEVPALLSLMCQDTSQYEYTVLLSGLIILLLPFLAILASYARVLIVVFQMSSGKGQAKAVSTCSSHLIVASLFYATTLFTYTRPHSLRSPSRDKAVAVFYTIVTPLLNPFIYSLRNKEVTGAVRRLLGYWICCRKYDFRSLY
Summary of the method: as §1

Measured: odorant receptor agonist call

CC(=O)OC1CC2CCC1(C)C2(C)C (centres undefined)
inactive: all assays above

CC12CCC(CC1)C(C)(C)O2
inactive: all assays above

CCCCCCCCOC(C)=O
inactive: all assays above

C=CCc1ccc(OC(C)=O)c(OC)c1
inactive: all assays above

COC(=O)c1ccccc1
not listed: O2A14
inactive: all other assays above

O=C1CCCCCCCCCCCCCCO1
inactive: all assays above

O=C1CCCCC1
not listed: O2A14
inactive: all other assays above

CCCCCC(=O)O
inactive: all assays above

CCCCCCCCCCC=O
inactive: all assays above

CCCC(=O)O
inactive: all assays above

COc1cc(C)ccc1O
inactive: all assays above

CC12CCC(C1)C(C)(C)C2=O (centres undefined)
inactive: all assays above

CCC1(O)C2(C)CCC(C2)C1(C)C (centres undefined)
inactive: all assays above

CCCCCOC(C)=O
active: O2AE1
not listed: O2A14
inactive: all other assays above

CC(C)C(=O)O
inactive: all assays above

CC12C=CCC1C1CCC3CC(=O)CCC3(C)C1CC2 (centres undefined)
inactive: all assays above

CCCCCC(C)=O
active: O14A2
not listed: O2A14
inactive: all other assays above

CCCCCCCCCC=O
inactive: all assays above

CC(=O)C(C)=O
inactive: all assays above

CCCCO
inactive: all assays above

CC1=NC(C)SC1C (centres undefined)
not listed: O2A14
inactive: all other assays above

CC(C)CCC(=O)O
inactive: all assays above

CC(=O)c1ccccc1
active: O14A2 | O14J1
not listed: O2A14
inactive: all other assays above

COc1ccccc1O
inactive: all assays above

CC=Cc1ccc(O)c(OC)c1
active: O14J1
inactive: all other assays above
